Test results reported in CN113214399A.
No constants are given. Whether binding was seen depends on the method and setting. Some binding calls cover weakened binding; strength is not graded here.

Tests used:
[1] = target: T1, 重组AFP抗原 (甲胎蛋白, α-fetoprotein) (UniProt P02771); assay: ELISA additivity on coated antigen
T1 sequence (looked up): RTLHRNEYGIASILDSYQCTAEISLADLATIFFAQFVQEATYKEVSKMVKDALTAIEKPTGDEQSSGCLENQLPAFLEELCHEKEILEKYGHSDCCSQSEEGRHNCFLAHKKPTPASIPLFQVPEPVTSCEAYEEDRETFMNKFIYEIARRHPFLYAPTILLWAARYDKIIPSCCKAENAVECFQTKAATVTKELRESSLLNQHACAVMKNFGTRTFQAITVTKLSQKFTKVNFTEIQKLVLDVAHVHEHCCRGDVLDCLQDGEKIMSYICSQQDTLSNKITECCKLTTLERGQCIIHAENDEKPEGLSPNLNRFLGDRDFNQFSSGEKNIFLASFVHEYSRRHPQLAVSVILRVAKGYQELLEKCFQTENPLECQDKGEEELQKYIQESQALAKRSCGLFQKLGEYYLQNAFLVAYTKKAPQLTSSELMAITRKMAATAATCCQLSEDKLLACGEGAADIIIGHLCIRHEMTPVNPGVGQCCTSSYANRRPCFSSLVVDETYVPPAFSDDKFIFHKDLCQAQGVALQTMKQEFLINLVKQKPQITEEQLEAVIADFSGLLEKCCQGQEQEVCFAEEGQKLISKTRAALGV

[2] = target: T1, 重组AFP抗原 (甲胎蛋白, α-fetoprotein); assay: Biacore sequential injection on immobilised antigen

B1: 抗AFP纳米抗体2F5 (VHH)
VHH: QVQLQESGGGVVQAGGSLRLTCAASESIFSFAAMGWYRQAPGKQRELVARITGGDNINYADSVKGRFTISKDNAKNTVYLQMNSLKPEDTAVYYCNGEGYGSSWFDDGKNYWGKGTQVTVSS
binding [1]: binds
binding [2]: binds
